# Test results as given in PubChem BioAssay AID504444 (National Center for Advancing Translational Sciences (NCATS), 2011).
# Screen size: about 360,000 compounds; about 7,500 (2.1%) were called active. The shares of active, inactive and inconclusive entries below differ from those in the screen. The call rests on the fitted dose curve; in most records, active means well fitted inhibition curve with a large enough effect; inconclusive means small, poorly fitted or top-dose-only effect, or effect the other way; inactive means flat fitted curve, though single readings scatter. Potencies beside an inconclusive call are fits to weak or partial responses and may not hold up.
# Experiment: Nrf2 qHTS screen for inhibitors; further: nearly all actives have a fitted effect of over 60% in size
# Conditions: A549 ARE-Fluc reporter, luciferase luminescence, 18-24 h; series mostly up to 46 µM
# How it was run: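 Concentration-response testing used A549 ARE_Fluc cells at 5000 cells/well. Following an 18-24 h compound incubation, viability was read by fluorescence (Ex 405/Em 525) and luciferase output by luminescence.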
# Potency means the concentration at half of the fitted maximal effect.
row,Compound,Potency
1,CC(OC(=O)c1ccc(NC(=O)CC#N)cc1)C(=O)NC(=O)NC1CCCCC1 (stereo unspecified),"inconclusive: 20.6 µM [activator, partial curve, poor fit]"
2,Cc1ccc(NC(=O)Cn2cc(C(F)(F)F)cc(Cl)c2=O)cc1S(=O)(=O)N1CCCCC1,active: 23.1 µM
3,O=C(NCCc1c[nH]c2ccccc12)Nc1ccccc1C(F)(F)F,"inconclusive: 16.4 µM [falling, single point]"
4,Cc1cc(C)n(-c2nc3c(c(=O)[nH]c(=O)n3C)n2CC(O)COc2ccccc2C)n1 (stereo unspecified),"inconclusive: 36.6 µM [falling, partial curve, poor fit]"
5,COc1ccc(N(CC(=O)Nc2cccc(SC)c2)S(C)(=O)=O)cc1,"inconclusive: 2.31 µM [activator, full curve]"
6,COc1ccc(OC)c(/C=C/C(=O)N2CCN(S(=O)(=O)c3ccc(C)cc3C)CC2)c1,"inconclusive: 20.6 µM [falling, single point]"
7,COc1cccc(NC(=O)c2cnn(-c3ccccc3)c2C)c1,"inconclusive: 1.03 µM [activator, full curve]"
8,CCOc1ccc(C2c3[nH]c4ccccc4c3C[C@H]3C(=O)N(C4CCN(Cc5ccccc5)CC4)CC(=O)N23)cc1OC (stereo partly specified),"inconclusive: 18.4 µM [falling, single point]"
9,CCCc1cc(=O)[nH]c(SCC(=O)N2CCN(S(=O)(=O)c3ccccc3)CC2)n1,"inconclusive: 6.51 µM [falling, single point]"
10,COc1ccc(NS(=O)(=O)c2cccc(C(=O)N(C)Cc3ccc(SC)cc3)c2)cc1,"inconclusive: 29.1 µM [falling, single point]"
11,Cc1nn(Cc2ccccc2)c(C)c1NC(=O)c1cc(-c2ccc3c(c2)OCO3)on1,"inconclusive: 13 µM [falling, partial curve, poor fit]"
12,O=C(CSc1nc2ccccc2[nH]1)c1ccc2c(c1)OCO2,inactive
13,O=c1[nH]cnc2onc(-c3ccc(F)cc3)c12,"inconclusive: 8.2 µM [falling, partial curve, poor fit]"
14,CCc1cccc(C)c1NC(=O)Nc1csc2c1CCCC2,inactive
15,Cc1ccc(C)c(NC(=O)CSc2nncn3c2cc2sccc23)c1,"inconclusive: 29.1 µM [falling, single point]"
16,COc1ccc(C(=O)NCCc2c[nH]c3ccccc23)cc1,"inconclusive: 10.3 µM [activator, partial curve]"
17,Cc1cc(Cl)c(S(=O)(=O)N2CCCC2)cc1OCC(=O)NC1CCCCC1,active: 7.31 µM
18,O=[N+]([O-])c1cccc(COc2ccc(CN3CCCCC3)cc2)c1,"inconclusive: 32.6 µM [activator, partial curve, poor fit]"
19,CCOCCCNC(=O)c1c(NC(=O)c2cc(=O)c3cc(C)c(C)cc3o2)sc2c1CCC2,inactive
20,CCOC(=O)c1ccc(N2C(=O)c3[nH]nc(-c4ccc(OC)cc4)c3C2c2ccc(C)cc2)cc1 (stereo unspecified),"inconclusive: 29.1 µM [falling, single point]"
21,CCCNC(=O)C1CCN(c2cc(C)nc3c(-c4ccc(OC)c(OC)c4)c(C)nn23)CC1,"inconclusive: 0.82 µM [falling, partial curve, poor fit]"

# Taken from above:
# Potency, COc1cccc(NC(=O)c2cnn(-c3ccccc3)c2C)c1 is entered as inconclusive: 1.03 µM [activator, full curve]
# Potency, Cc1ccc(NC(=O)Cn2cc(C(F)(F)F)cc(Cl)c2=O)cc1S(=O)(=O)N1CCCCC1 is entered as active: 23.1 µM

# Exported bar-delimited: 3 of the compounds above.
row | Compound | Potency
15 | Cc1ccc(C)c(NC(=O)CSc2nncn3c2cc2sccc23)c1 | inconclusive: 29.1 µM [falling, single point]
16 | COc1ccc(C(=O)NCCc2c[nH]c3ccccc23)cc1 | inconclusive: 10.3 µM [activator, partial curve]
17 | Cc1cc(Cl)c(S(=O)(=O)N2CCCC2)cc1OCC(=O)NC1CCCCC1 | active: 7.31 µM

# (more compounds)

row,Compound,Potency
1,CCOCCCNC(=O)c1ccc(/C=C2\Oc3ccccc3N(C)C2=O)cc1,"inconclusive: 20.6 µM [falling, single point]"
2,CCn1c(=O)cc(OCC(=O)NCc2ccc(F)cc2Cl)c2ccccc21,"inconclusive: 23.1 µM [falling, single point]"
3,O=C(CNC(=O)c1ccccc1F)N/N=C/c1ccc2c(c1)OCO2,"inconclusive: 29.1 µM [activator, single point]"
4,Cn1nc(CC(=O)Nc2cccc3ncccc23)c2ccccc2c1=O,"inconclusive: 5.17 µM [falling, partial curve, poor fit]"
5,CCOc1cccc(OCCn2cnc3ccccc3c2=O)c1,"inconclusive: 3.26 µM [activator, partial curve, poor fit]"
6,Cc1oc(-c2ccc(Cl)cc2)nc1CSc1nnc(C)n2c1cc1sccc12,"inconclusive: 18.4 µM [activator, single point]"
7,CCOc1cc(NC(=O)c2ccccc2OC)c(OCC)cc1NC(=O)c1ccccc1,"inconclusive: 2.06 µM [falling, full curve, poor fit]"
8,CN1Cc2c(N3CCOCC3)nc3sc(C(=O)c4ccc(Br)cc4)c(N)c3c2CC1(C)C,"inconclusive: 29.1 µM [falling, single point]"
9,CN1/C(=C\C(=O)C[n+]2cccc(Br)c2)C(C)(C)c2ccccc21,active: 3.26 µM
10,Cc1ccn2c(Nc3ccc4c(c3)OCO4)c(-c3ccco3)nc2c1,"inconclusive: 9.2 µM [activator, partial curve, poor fit]"
11,CCC(c1nnnn1CCOC)N(Cc1cc2c(C)cc(C)cc2[nH]c1=O)CC1CCCO1 (stereo unspecified),inactive
12,COc1ccccc1N=C(C)C1=C(O)CC(c2ccccc2)CC1=O (stereo unspecified),"inconclusive: 32.6 µM [activator, single point]"
13,N#Cc1c(C(F)(F)F)cc(-c2cccs2)nc1SCC(=O)Nc1ccc(Cl)cc1,"inconclusive: 29.1 µM [falling, single point]"
14,CCCCc1c(C)nn(-c2nnc3c4ccccc4n(C)c3n2)c1C,"inconclusive: 0.0184 µM [falling, partial curve, poor fit]"
15,CCCOc1ccc(/C=C/C(=O)Nc2ccc([N+](=O)[O-])cc2)cc1,active: 23.1 µM
16,N#CC1=C2SCN(Cc3ccco3)CN2C(=O)CC1c1c(F)cccc1Cl (stereo unspecified),"inconclusive: 18.4 µM [activator, partial curve, poor fit]"
17,Cc1cc(C)c(OCC(=O)Nc2cccc(O)c2)cc1C,"inconclusive: 10.3 µM [activator, partial curve]"
18,COCCn1c(C)cc(C(=O)CSc2nc3ccccc3s2)c1C,"inconclusive: 1.64 µM [activator, partial curve]"
19,COc1ccc(C(=O)c2sc3nc(C)cc(-c4cccs4)c3c2N)cc1,"inconclusive: 11.6 µM [falling, partial curve, poor fit]"
20,CCOC(=O)C1=C(Cc2ccc(Cl)cc2)C(=O)c2ccccc2C1=O,"inconclusive: 20.6 µM [falling, single point]"
21,O=S(=O)(c1cccc(NC(=S)N2CCN(c3ccccc3F)CC2)c1)C(F)F,"inconclusive: 1.46 µM [activator, full curve, poor fit]"

row,Compound,Potency
1,O=C(Oc1ccc2ccccc2c1)c1ccccc1,"inconclusive: 25.9 µM [falling, single point]"
2,CCCn1c2ccccc2c2cnn(CC(=O)N(CCCOC(C)C)Cc3ccco3)c(=O)c21,"inconclusive: 11.6 µM [falling, partial curve, poor fit]"
3,COc1cc(CNc2ncn[nH]2)ccc1OCc1ccccc1C,"inconclusive: 25.9 µM [activator, single point]"
4,CC(C)(C)c1ccc(-n2ncc3c2CCCC3NC(=O)c2csnn2)cc1 (stereo unspecified),"inconclusive: 1.64 µM [falling, full curve, poor fit]"
5,CCN(CC)CCN(Cc1cc2ccc(C)cc2[nH]c1=O)C(=S)Nc1ccccc1C(=O)OC,inactive
6,Cc1ccc(NS(=O)(=O)c2ccc(NC(=O)c3cccs3)cc2)c(C)c1,"inconclusive: 16.4 µM [falling, single point]"
7,N#Cc1ccccc1CSc1nnc(-c2ccccc2)o1,"inconclusive: 3.66 µM [activator, partial curve]"
8,CSc1n[nH]c2nc3c(c(=O)n12)C1(CCCC1)Cc1ccccc1-3,inactive
9,CCN(CC(=O)Nc1ccc(OC)cc1)C(=O)COc1cccc2c1OC(C)(C)C2,"inconclusive: 0.146 µM [falling, full curve, poor fit]"
10,CCN(CC)C(=O)Cn1cc(C(=O)C(=O)N2CCN(c3ccc([N+](=O)[O-])cc3)CC2)c2ccccc21,"inconclusive: 10.3 µM [falling, partial curve]"
11,COc1ccccc1CC(=O)Nc1cccc(C(=O)Nc2nccs2)c1,"inconclusive: 18.4 µM [falling, partial curve, poor fit]"
12,COc1ccc(CSCC(=O)Nc2ccccc2)cc1[N+](=O)[O-],"inconclusive: 2.31 µM [falling, partial curve, poor fit]"
13,CC(C)CNS(=O)(=O)c1ccc(NC(=O)Cn2nc(-c3ccc(F)cc3)ccc2=O)cc1,"inconclusive: 20.6 µM [falling, single point]"
14,O=[N+]([O-])c1ccc(CSc2ccc(S(=O)(=O)N3CCCC3)cn2)cc1,"inconclusive: 20.6 µM [falling, single point]"
15,NCCCN(Cc1ccc(Cl)cc1)c1ccc(Br)cn1,"inconclusive: 23.1 µM [activator, partial curve, poor fit]"
16,Cc1ccccc1-c1cc(=O)c2c(O)cccc2o1,inactive
17,CC(=O)c1c(C)oc2ccc(N(C(=O)c3ccncc3)S(=O)(=O)c3ccc(C)cc3C)cc12,"inconclusive: 20.6 µM [falling, single point]"
18,COc1ccc(CN(Cc2ccccc2)C(=O)c2cccc(C#N)c2)cc1COc1ccc(NC(C)=O)cc1,"inconclusive: 20.6 µM [falling, single point]"
19,CC(=O)c1c(C)[nH]c(C(=O)COC(=O)c2nccnc2N)c1C,"inconclusive: 23.1 µM [activator, partial curve, poor fit]"
